Results taken from paper PMC12752627, “Discovery of a Potent and Selective TEAD Degrader with Durable Degradation Activity” (Advanced Science, 2025).
Further values from the same series stand in other lists.

Test system: 867 cancer cell lines
Assay: PRISM assay (barcoded cell line screening, 5 days);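 further: top test concentration 10 mM in eight-point dilution series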
Assay type: cell-based
Set-up: scale not given here
Description: The principle of the PRISM assay has been described elsewhere and was conducted as previously outlined by the PRISM team at the Broad Institute.^[ [14], [31] ^] In PRISM (MTS027) experiments, KG‐FP‐003 was tested across 867 different cancer cell lines. Cells were treated with eight concentration gradients, ranging from 4.6 nM to […], in triplicate dilutions over a period of five days. Each plate was treated with 20 µM bortezomib as a positive control and DMSO as a negative control. Three replicate experiments were performed for each compound. The resulting data were analyzed using GraphPad PRISM 9.5.

## CNC(=O)c1cc2c(c(F)c1-c1c(Cl)c(F)cc3c1C[C@@](CN[C@H]1CC[C@H](C(=O)N4CCC(CC5CCN(C(=O)COc6ccc(N7CCC(=O)NC7=O)c(C)c6)CC5)CC4)CC1)(c1ccccc1)O3)[C@@H](O)[C@@H](C)C2 [KG-FP-003]
PANC1_PANCREAS, PR500
  KG-FP-003-AUC: 0.97
PANC0203_PANCREAS, PR500
  KG-FP-003-AUC: 0.80
PANC0327_PANCREAS, PR500
  KG-FP-003-AUC: 0.68
PANC0403_PANCREAS, PR500
  KG-FP-003-AUC: 0.85
PANC0504_PANCREAS, PR300
  KG-FP-003-AUC: 0.41
PANC0813_PANCREAS, PR500
  KG-FP-003-AUC: 0.96
PANC1005_PANCREAS, PR500
  KG-FP-003-AUC: 0.72
PATU8902_PANCREAS, PR500
  KG-FP-003-AUC: 0.69
PATU8988S_PANCREAS, PR500
  KG-FP-003-AUC: 0.92
PATU8988T_PANCREAS, PR500
  KG-FP-003-AUC: 0.33
PC3_PROSTATE, PR500
  KG-FP-003-AUC: 1.00
PC14_LUNG, PR500
  KG-FP-003-AUC: 0.89
PEA1_OVARY, PR300
  KG-FP-003-AUC: 0.57
PECAPJ15_UPPER_AERODIGESTIVE_TRACT, PR500
  KG-FP-003-AUC: 0.69
PECAPJ41CLONED2_UPPER_AERODIGESTIVE_TRACT, PR500
  KG-FP-003-AUC: 0.74
PECAPJ49_UPPER_AERODIGESTIVE_TRACT, PR500
  KG-FP-003-AUC: 0.73
PEDS005TSUSP_KIDNEY, PR300
  KG-FP-003-AUC: 0.76
PF382_HAEMATOPOIETIC_AND_LYMPHOID_TISSUE, PR300
  KG-FP-003-AUC: 0.99
PFSK1_CENTRAL_NERVOUS_SYSTEM, PR300
  KG-FP-003-AUC: 0.97
PK1_PANCREAS, PR500
  KG-FP-003-AUC: 0.88
PK8_PANCREAS, PR300
  KG-FP-003-AUC: 0.92
PK45H_PANCREAS, PR500
  KG-FP-003-AUC: 0.72
PK59_PANCREAS, PR500
  KG-FP-003-AUC: 0.63
PL21_HAEMATOPOIETIC_AND_LYMPHOID_TISSUE, PR300
  KG-FP-003-AUC: 1.00
PLCPRF5_LIVER, PR500
  KG-FP-003-AUC: 0.87
PMFKO14_LARGE_INTESTINE, PR300
  KG-FP-003-AUC: 0.97
PSN1_PANCREAS, PR500
  KG-FP-003-AUC: 0.93
QGP1_PANCREAS, PR500
  KG-FP-003-AUC: 0.98
RBE_BILIARY_TRACT, PR300
  KG-FP-003-AUC: 1.00
RCC10RGB_KIDNEY, PR500
  KG-FP-003-AUC: 0.99
RCHACV_HAEMATOPOIETIC_AND_LYMPHOID_TISSUE, PR300
  KG-FP-003-AUC: 0.79
RCK8_HAEMATOPOIETIC_AND_LYMPHOID_TISSUE, PR300
  KG-FP-003-AUC: 0.96
RCM1_LARGE_INTESTINE, PR500
  KG-FP-003-AUC: 1.00
RDES_BONE, PR300
  KG-FP-003-AUC: 0.99
RD_SOFT_TISSUE, PR300
  KG-FP-003-AUC: 0.86
RD_SOFT_TISSUE, PR500
  KG-FP-003-AUC: 0.90
RERFGC1B_STOMACH, PR300
  KG-FP-003-AUC: 0.85
RERFLCAD1_LUNG, PR500
  KG-FP-003-AUC: 1.00
RERFLCAD2_LUNG, PR500
  KG-FP-003-AUC: 0.72
RERFLCAI_LUNG, PR500
  KG-FP-003-AUC: 0.59
RERFLCKJ_LUNG, PR500
  KG-FP-003-AUC: 0.99
RERFLCMS_LUNG, PR500
  KG-FP-003-AUC: 0.99
RH4_SOFT_TISSUE, PR300
  KG-FP-003-AUC: 0.83
RH28_SOFT_TISSUE, PR300
  KG-FP-003-AUC: 0.97
RH30_SOFT_TISSUE, PR300
  KG-FP-003-AUC: 0.99
RH30_SOFT_TISSUE, PR500
  KG-FP-003-AUC: 0.68
RH36_SOFT_TISSUE, PR300
  KG-FP-003-AUC: 0.67
RHJT_SOFT_TISSUE, PR300
  KG-FP-003-AUC: 0.68
RI1_HAEMATOPOIETIC_AND_LYMPHOID_TISSUE, PR300
  KG-FP-003-AUC: 0.82
RKN_SOFT_TISSUE, PR500
  KG-FP-003-AUC: 0.61
RKO_LARGE_INTESTINE, PR500
  KG-FP-003-AUC: 0.99
RL952_ENDOMETRIUM, PR500
  KG-FP-003-AUC: 0.92
RL_HAEMATOPOIETIC_AND_LYMPHOID_TISSUE, PR300
  KG-FP-003-AUC: 0.99
RMGI_OVARY, PR500
  KG-FP-003-AUC: 0.72
RMSYM_SOFT_TISSUE, PR300
  KG-FP-003-AUC: 0.99
RMUGS_OVARY, PR500
  KG-FP-003-AUC: 1.00
RO82W1_THYROID, PR300
  KG-FP-003-AUC: 0.66
RPMI7951_SKIN, PR300
  KG-FP-003-AUC: 0.72
RPMI8402_HAEMATOPOIETIC_AND_LYMPHOID_TISSUE, PR300
  KG-FP-003-AUC: 0.82
RT4_URINARY_TRACT, PR500
  KG-FP-003-AUC: 0.93
RT112_URINARY_TRACT, PR500
  KG-FP-003-AUC: 0.87
RVH421_SKIN, PR500
  KG-FP-003-AUC: 0.83
S117_THYROID, PR500
  KG-FP-003-AUC: 0.82
SAOS2_BONE, PR300
  KG-FP-003-AUC: 0.83
SBC5_LUNG, PR500
  KG-FP-003-AUC: 0.99
SCABER_URINARY_TRACT, PR500
  KG-FP-003-AUC: 0.66
SCC3_HAEMATOPOIETIC_AND_LYMPHOID_TISSUE, PR300
  KG-FP-003-AUC: 0.75
SCC9_UPPER_AERODIGESTIVE_TRACT, PR300
  KG-FP-003-AUC: 0.83
SCC25_UPPER_AERODIGESTIVE_TRACT, PR500
  KG-FP-003-AUC: 0.77
SCLC21H_LUNG, PR300
  KG-FP-003-AUC: 0.88
SEM_HAEMATOPOIETIC_AND_LYMPHOID_TISSUE, PR300
  KG-FP-003-AUC: 0.99
SF126_CENTRAL_NERVOUS_SYSTEM, PR500
  KG-FP-003-AUC: 0.95
SF295_CENTRAL_NERVOUS_SYSTEM, PR500
  KG-FP-003-AUC: 1.00
SF539_CENTRAL_NERVOUS_SYSTEM, PR500
  KG-FP-003-AUC: 0.99
SG231_BILIARY_TRACT, PR300
  KG-FP-003-AUC: 1.00
SH4_SKIN, PR500
  KG-FP-003-AUC: 0.76
SH10TC_STOMACH, PR500
  KG-FP-003-AUC: 0.67
SHMAC5_PROSTATE, PR300
  KG-FP-003-AUC: 0.80
SHP77_LUNG, PR300
  KG-FP-003-AUC: 0.99
SIMA_AUTONOMIC_GANGLIA, PR300
  KG-FP-003-AUC: 0.99
SIMA_AUTONOMIC_GANGLIA, PR500
  KG-FP-003-AUC: 1.00
SISO_CERVIX, PR300
  KG-FP-003-AUC: 0.69
SJSA1_BONE, PR300
  KG-FP-003-AUC: 0.68
SJSA1_BONE, PR500
  KG-FP-003-AUC: 0.82
SKES1_BONE, PR300
  KG-FP-003-AUC: 0.97
SKES1_BONE, PR500
  KG-FP-003-AUC: 0.99
SKGII_ENDOMETRIUM, PR300
  KG-FP-003-AUC: 0.88
SKGI_ENDOMETRIUM, PR300
  KG-FP-003-AUC: 0.86
SKGT2_STOMACH, PR300
  KG-FP-003-AUC: 0.99
SKGT4_OESOPHAGUS, PR300
  KG-FP-003-AUC: 0.74
SKHEP1_LIVER, PR500
  KG-FP-003-AUC: 0.37
SKLMS1_SOFT_TISSUE, PR300
  KG-FP-003-AUC: 0.92
SKLU1_LUNG, PR500
  KG-FP-003-AUC: 0.72
SKM1_HAEMATOPOIETIC_AND_LYMPHOID_TISSUE, PR300
  KG-FP-003-AUC: 1.00
SKMEL2_SKIN, PR500
  KG-FP-003-AUC: 0.99
SKMEL3_SKIN, PR500
  KG-FP-003-AUC: 1.00
